# The supplement of paper PMC4604168 (melanoma cell lines)
# The list shows a part of the results. Many values rest on one well or one pass, so single values are uncertain.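 The apoptosis fraction was the count of cleaved-PARP antibody-stained nuclei relative to all DNA-stained nuclei, imaged in 1,536-well plates. Screening doses were set so most cells survived, and baseline and induced cleaved-PARP levels vary greatly across cell lines.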
# Columns and labels:
# Experiment in all cases: cleaved PARP positive nuclei fraction relative to DMSO control; melanoma cells; higher = more apoptosis
# Settings in all cases: library dose: low library concentration; 72 h
# MZ2-MEL = system: MZ2-MEL
# MeWo = system: MeWo
# RPMI7951 = system: RPMI7951
# RVH-421 = system: RVH-421
# SkMel28 = system: SkMel28
# SkMel30 = system: SkMel30
# SkMel5 = system: SkMel5
# UACC257 = system: UACC257
# UACC62 = system: UACC62
Compound,cleaved PARP positive nuclei fraction (MZ2-MEL) [%],cleaved PARP positive nuclei fraction (MeWo) [%],cleaved PARP positive nuclei fraction (RPMI7951) [%],cleaved PARP positive nuclei fraction (RVH-421) [%],cleaved PARP positive nuclei fraction (SkMel28) [%],cleaved PARP positive nuclei fraction (SkMel30) [%],cleaved PARP positive nuclei fraction (SkMel5) [%],cleaved PARP positive nuclei fraction (UACC257) [%],cleaved PARP positive nuclei fraction (UACC62) [%]
"C[C@]12O[C@H](C[C@]1(O)CO)n1c3ccccc3c3c4c(c5c6ccccc6n2c5c31)CNC4=O [Lestaurtinib] + COc1ccc(-c2ccc3c(N4CCOCC4)nc(N4C[C@@H](C)O[C@@H](C)C4)nc3n2)cc1CO [KU0063794] (first compound 0.004 µM, partner dose 0.02 µM)",97.2,112,73.3,102,112,203,67.1,168,98.4
"O=S(=O)(c1ccccc1)N(CC(F)(F)F)c1ccc(C(O)(C(F)(F)F)C(F)(F)F)cc1 + O=C(Oc1ccc([N+](=O)[O-])cc1)N1CCC(C(O)(c2ccc3c(c2)OCO3)c2ccc3c(c2)OCO3)CC1 [JZL184] (first compound 1.4 µM, partner dose 1 µM)",72,51.3,78.7,83.7,218,103,36.5,42.1,137
"C[As](C)SC[C@H](NC(=O)CC[C@H](N)C(=O)O)C(=O)NCC(=O)O [Darinaparsin] + CCCCCCCCCCCC1=C(O)C(=O)C=C(O)C1=O [Embelin] (first compound 0.4 µM, partner dose 1.2 µM)",240,70.9,76.2,27.4,161,27.2,116,230,74.9
"COc1cc2ncnc(Nc3ccc(Oc4ccccc4)cc3)c2cc1OC + C/C(O)=C(\C#N)C(=O)Nc1cc(Br)ccc1Br [LFM-A13] (first compound 2 µM, partner dose 2 µM)",83.8,163,42.5,33.7,156,158,60.1,86.3,96.2
"C/C(O)=C(\C#N)C(=O)Nc1cc(Br)ccc1Br + O=C(Oc1ccc([N+](=O)[O-])cc1)N1CCC(C(O)(c2ccc3c(c2)OCO3)c2ccc3c(c2)OCO3)CC1 [JZL184] (first compound 2 µM, partner dose 1 µM)",159,53.9,89.3,61.5,178,144,101,70.6,70.3
"C[C@]12O[C@H](C[C@]1(O)CO)n1c3ccccc3c3c4c(c5c6ccccc6n2c5c31)CNC4=O [Lestaurtinib] + O=C(CCCCCCC(=O)Nc1ccccc1)NO [vorinostat] (first compound 0.004 µM, partner dose 0.08 µM)",153,85.4,99.2,133,73.1,87.8,129,312,78.7
"NCC(=O)Nc1ccc(-n2nc(C(F)(F)F)cc2-c2ccc3c(ccc4ccccc43)c2)cc1 + O=C(Oc1ccc([N+](=O)[O-])cc1)N1CCC(C(O)(c2ccc3c(c2)OCO3)c2ccc3c(c2)OCO3)CC1 [JZL184] (first compound 1 µM, partner dose 1 µM)",130,71.9,33.4,97.2,89.6,104,56.7,48.7,22.6
"C[C@]12O[C@H](C[C@]1(O)CO)n1c3ccccc3c3c4c(c5c6ccccc6n2c5c31)CNC4=O [Lestaurtinib] + c1cc(-c2cnn3cc(-c4ccc(OCCN5CCCCC5)cc4)cnc23)ccn1 [Dorsomorphin] (first compound 0.004 µM, partner dose 0.4 µM)",92.4,124,85.5,230,62.3,454,91.7,81.3,79.3
"C[C@]12O[C@H](C[C@]1(O)CO)n1c3ccccc3c3c4c(c5c6ccccc6n2c5c31)CNC4=O [Lestaurtinib] + COc1cc(Nc2ncc(F)c(Nc3ccc4c(n3)NC(=O)C(C)(C)O4)n2)cc(OC)c1OC [Tamatinib] (first compound 0.004 µM, partner dose 0.4 µM)",125,211,156,49.7,66.7,144,53.8,317,51.7
"O=C(O)c1ccc(-c2c[nH]c3ncc(-c4ccccc4)cc23)cc1C1CCCC1 + O=C(Oc1ccc([N+](=O)[O-])cc1)N1CCC(C(O)(c2ccc3c(c2)OCO3)c2ccc3c(c2)OCO3)CC1 [JZL184] (first compound 0.16 µM, partner dose 1 µM)",67.8,57.5,159,94.1,75.9,69.5,29.1,144,42.6
"C[C@@H]1CCN(C(=O)CC#N)C[C@@H]1N(C)c1ncnc2[nH]ccc12 + C/C(O)=C(\C#N)C(=O)Nc1cc(Br)ccc1Br [LFM-A13] (first compound 1 µM, partner dose 2 µM)",90.6,50.8,24.7,103,73.1,62.6,83,183,123
"OCCn1cc(-c2cnc3nnn(Cc4ccc5ncccc5c4)c3n2)cn1 + C/C(O)=C(\C#N)C(=O)Nc1cc(Br)ccc1Br [LFM-A13] (first compound 1 µM, partner dose 2 µM)",138,47.5,39.6,55.6,100,12.7,63.1,87.1,47
"C=CCn1c(=O)c2cnc(Nc3ccc(N4CCN(C)CC4)cc3)nc2n1-c1cccc(C(C)(C)O)n1 + O=C(Oc1ccc([N+](=O)[O-])cc1)N1CCC(C(O)(c2ccc3c(c2)OCO3)c2ccc3c(c2)OCO3)CC1 [JZL184] (first compound 0.02 µM, partner dose 1 µM)",179,49.4,216,140,113,339,121,97.4,217
"CCN(CC)CCCCNc1ncc2cc(-c3cc(OC)cc(OC)c3)c(NC(=O)NC(C)(C)C)nc2n1 + O=C(Oc1ccc([N+](=O)[O-])cc1)N1CCC(C(O)(c2ccc3c(c2)OCO3)c2ccc3c(c2)OCO3)CC1 [JZL184] (first compound 0.1 µM, partner dose 1 µM)",128,55.7,73,105,95,31.4,42.3,51.4,90.2
"C[C@]12O[C@H](C[C@]1(O)CO)n1c3ccccc3c3c4c(c5c6ccccc6n2c5c31)CNC4=O [Lestaurtinib] + COc1ccc2c(c1)CCC1C2CCC2(C)C(NCCCCCCN3C(=O)C=CC3=O)CCC12 [U73122] (first compound 0.004 µM, partner dose 0.4 µM)",56.4,251,174,49.7,157,45.7,73.6,191,115
"Cn1nnc2c(C(N)=O)ncn2c1=O [temozolomide] + Cc1cc(SCc2sc(-c3ccc(C(F)(F)F)c(F)c3)nc2C)ccc1OCC(=O)O [GW0742] (first compound 2 µM, partner dose 2 µM)",52.4,49.9,90.7,26.9,75.9,64.7,30,36.8,43.6
"CN(C)S(=O)(=O)c1ccc2c(c1)/C(=C/c1cc3c([nH]1)CCCC3)C(=O)N2 + Cc1cc(SCc2sc(-c3ccc(C(F)(F)F)c(F)c3)nc2C)ccc1OCC(=O)O [GW0742] (first compound 0.4 µM, partner dose 2 µM)",82,110,80.8,88.6,193,451,258,625,83.8
"Cc1cc(SCc2sc(-c3ccc(C(F)(F)F)c(F)c3)nc2C)ccc1OCC(=O)O + CC(C)CCN1c2nc(Nc3cc(F)c(O)c(F)c3)ncc2N(C)C(=O)C1C [BID1870] (first compound 2 µM, partner dose 0.2 µM)",165,113,36.3,141,111,33.9,127,168,77.4
"C[C@]12O[C@H](C[C@]1(O)CO)n1c3ccccc3c3c4c(c5c6ccccc6n2c5c31)CNC4=O [Lestaurtinib] + COc1cc2c(Oc3ccc4[nH]c(C)cc4c3F)ncnc2cc1OCCCN1CCCC1 [cediranib] (first compound 0.004 µM, partner dose 0.4 µM)",173,154,57.7,45.4,41.4,28.5,37.1,71.9,42.7
"C[C@]12O[C@H](C[C@]1(O)CO)n1c3ccccc3c3c4c(c5c6ccccc6n2c5c31)CNC4=O [Lestaurtinib] + O=C(Oc1ccc([N+](=O)[O-])cc1)N1CCC(C(O)(c2ccc3c(c2)OCO3)c2ccc3c(c2)OCO3)CC1 [JZL184] (first compound 0.004 µM, partner dose 1 µM)",223,104,45.1,74.2,193,76.5,78.3,163,74.8
"CC1(C)NC(=O)N(c2ccc([N+](=O)[O-])c(C(F)(F)F)c2)C1=O [nilutamide] + Cc1cc(SCc2sc(-c3ccc(C(F)(F)F)c(F)c3)nc2C)ccc1OCC(=O)O [GW0742] (first compound 1 µM, partner dose 2 µM)",76.9,180,78.6,80.2,52.8,39.6,77.4,153,154
"CN(NC(=O)CC(=O)NN(C)C(=S)c1ccccc1)C(=S)c1ccccc1 + O=C(Oc1ccc([N+](=O)[O-])cc1)N1CCC(C(O)(c2ccc3c(c2)OCO3)c2ccc3c(c2)OCO3)CC1 [JZL184] (first compound 0.006 µM, partner dose 1 µM)",145,76.8,126,78.4,155,68.5,414,127,42.3
"COc1cc(N2CCC(N3CCN(C)CC3)CC2)ccc1Nc1ncc(Cl)c(Nc2ccccc2S(=O)(=O)C(C)C)n1 + O=C(Oc1ccc([N+](=O)[O-])cc1)N1CCC(C(O)(c2ccc3c(c2)OCO3)c2ccc3c(c2)OCO3)CC1 [JZL184] (first compound 0.08 µM, partner dose 1 µM)",79.4,61.7,45.8,103,66.6,56.7,116,35.8,12.5

# Six neighbouring records already listed, quoted:
Compound,cleaved PARP positive nuclei fraction (MZ2-MEL) [%],cleaved PARP positive nuclei fraction (MeWo) [%],cleaved PARP positive nuclei fraction (RPMI7951) [%],cleaved PARP positive nuclei fraction (RVH-421) [%],cleaved PARP positive nuclei fraction (SkMel28) [%],cleaved PARP positive nuclei fraction (SkMel30) [%],cleaved PARP positive nuclei fraction (SkMel5) [%],cleaved PARP positive nuclei fraction (UACC257) [%],cleaved PARP positive nuclei fraction (UACC62) [%]
"CN(C)S(=O)(=O)c1ccc2c(c1)/C(=C/c1cc3c([nH]1)CCCC3)C(=O)N2 + Cc1cc(SCc2sc(-c3ccc(C(F)(F)F)c(F)c3)nc2C)ccc1OCC(=O)O [GW0742] (first compound 0.4 µM, partner dose 2 µM)",82,110,80.8,88.6,193,451,258,625,83.8
"Cc1cc(SCc2sc(-c3ccc(C(F)(F)F)c(F)c3)nc2C)ccc1OCC(=O)O + CC(C)CCN1c2nc(Nc3cc(F)c(O)c(F)c3)ncc2N(C)C(=O)C1C [BID1870] (first compound 2 µM, partner dose 0.2 µM)",165,113,36.3,141,111,33.9,127,168,77.4
"C[C@]12O[C@H](C[C@]1(O)CO)n1c3ccccc3c3c4c(c5c6ccccc6n2c5c31)CNC4=O [Lestaurtinib] + COc1cc2c(Oc3ccc4[nH]c(C)cc4c3F)ncnc2cc1OCCCN1CCCC1 [cediranib] (first compound 0.004 µM, partner dose 0.4 µM)",173,154,57.7,45.4,41.4,28.5,37.1,71.9,42.7
"C[C@]12O[C@H](C[C@]1(O)CO)n1c3ccccc3c3c4c(c5c6ccccc6n2c5c31)CNC4=O [Lestaurtinib] + O=C(Oc1ccc([N+](=O)[O-])cc1)N1CCC(C(O)(c2ccc3c(c2)OCO3)c2ccc3c(c2)OCO3)CC1 [JZL184] (first compound 0.004 µM, partner dose 1 µM)",223,104,45.1,74.2,193,76.5,78.3,163,74.8
"CC1(C)NC(=O)N(c2ccc([N+](=O)[O-])c(C(F)(F)F)c2)C1=O [nilutamide] + Cc1cc(SCc2sc(-c3ccc(C(F)(F)F)c(F)c3)nc2C)ccc1OCC(=O)O [GW0742] (first compound 1 µM, partner dose 2 µM)",76.9,180,78.6,80.2,52.8,39.6,77.4,153,154
"CN(NC(=O)CC(=O)NN(C)C(=S)c1ccccc1)C(=S)c1ccccc1 + O=C(Oc1ccc([N+](=O)[O-])cc1)N1CCC(C(O)(c2ccc3c(c2)OCO3)c2ccc3c(c2)OCO3)CC1 [JZL184] (first compound 0.006 µM, partner dose 1 µM)",145,76.8,126,78.4,155,68.5,414,127,42.3
